Here are results for one substance from PMC10649679.

Protein sequences, listed by entry. Tags and fused reporters are not part of them.
UniProt Q13596: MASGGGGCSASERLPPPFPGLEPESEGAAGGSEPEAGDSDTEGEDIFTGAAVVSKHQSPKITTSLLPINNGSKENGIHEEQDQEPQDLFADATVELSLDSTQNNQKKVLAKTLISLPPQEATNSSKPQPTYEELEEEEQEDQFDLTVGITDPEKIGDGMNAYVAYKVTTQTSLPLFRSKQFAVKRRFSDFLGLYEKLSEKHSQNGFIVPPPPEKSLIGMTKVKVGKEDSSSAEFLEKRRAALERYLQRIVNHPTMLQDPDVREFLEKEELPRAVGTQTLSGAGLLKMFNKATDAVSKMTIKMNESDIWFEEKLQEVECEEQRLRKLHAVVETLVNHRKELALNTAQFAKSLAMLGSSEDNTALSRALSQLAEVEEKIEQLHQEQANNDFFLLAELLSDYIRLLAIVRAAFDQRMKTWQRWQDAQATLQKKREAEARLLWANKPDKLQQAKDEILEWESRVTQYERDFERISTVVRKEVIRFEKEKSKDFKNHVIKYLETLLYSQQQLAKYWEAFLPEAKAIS

In this experiment the target is T1, fusion protein of GFP with the cytoplasmic domain of cation-independent mannose 6-phosphate receptor (UniProt P11717).
T1 sequence: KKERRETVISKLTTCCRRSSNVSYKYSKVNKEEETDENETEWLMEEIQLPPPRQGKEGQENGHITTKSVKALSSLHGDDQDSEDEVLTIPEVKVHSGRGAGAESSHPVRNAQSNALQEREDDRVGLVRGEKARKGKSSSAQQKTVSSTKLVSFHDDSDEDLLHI
Briefly: co-IP; GFP-trap beads (Chromotek) on lysates of HEK293T cells transfected with the GFP fusion constructs; lysis in 50 mM Tris/HCl, 0.5% NP40, protease inhibitors, pH 7.4; 1 h at 4 °C; endogenous partners detected by Western blot (LI-COR Odyssey); enrichment given relative to GFP only.

No constants are given. Whether binding was seen depends on the method and setting. In cells and extracts the contact can be indirect. Some results given as binding are weak or reduced against the parent protein; the word gives no strength. Tags and fused reporters may be left off the sequences shown.

As for SNX1 (from UniProt Q13596 1-522), the binding result is reported as “binds”.
